Assay results as given in the supplement of paper PMC4604168 (melanoma cell lines).
The list shows a part of the results. Single values are uncertain, as repeats are few or missing.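 Cells were imaged in 1,536-well plates, and nuclei stained with an antibody against cleaved PARP were counted against all DNA-stained nuclei to give the apoptosis fraction. Screening doses were chosen to leave most cells alive, and resting and induced cleaved-PARP levels differ strongly between cell lines.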

How the values were obtained:
Test in all cases: cleaved PARP positive nuclei fraction relative to DMSO control; melanoma cells; higher = more apoptosis
Details in all cases: library dose: low library concentration; 72 h
[1] = tested on: CBRC034 (line from a melanoma biopsy)
[2] = tested on: COLO792
[3] = tested on: COLO800
[4] = tested on: COLO829
[5] = tested on: G361
[6] = tested on: IPC-298
[7] = tested on: IST-MEL1
[8] = tested on: LB2518-MEL
[9] = tested on: LOXIMVI
[10] = tested on: MEL-HO
[11] = tested on: MZ2-MEL
[12] = tested on: MeWo
[13] = tested on: RPMI7951
[14] = tested on: RVH-421
[15] = tested on: SkMel28
[16] = tested on: SkMel2
[17] = tested on: SkMel30
[18] = tested on: UACC62

| SMILES | cleaved PARP positive nuclei fraction [1] | cleaved PARP positive nuclei fraction [2] | cleaved PARP positive nuclei fraction [3] | cleaved PARP positive nuclei fraction [4] | cleaved PARP positive nuclei fraction [5] | cleaved PARP positive nuclei fraction [6] | cleaved PARP positive nuclei fraction [7] | cleaved PARP positive nuclei fraction [8] | cleaved PARP positive nuclei fraction [9] | cleaved PARP positive nuclei fraction [10] | cleaved PARP positive nuclei fraction [11] | cleaved PARP positive nuclei fraction [12] | cleaved PARP positive nuclei fraction [13] | cleaved PARP positive nuclei fraction [14] | cleaved PARP positive nuclei fraction [15] | cleaved PARP positive nuclei fraction [16] | cleaved PARP positive nuclei fraction [17] | cleaved PARP positive nuclei fraction [18] |
| --- | --- | --- | --- | --- | --- | --- | --- | --- | --- | --- | --- | --- | --- | --- | --- | --- | --- | --- |
| CC[C@]1(O)C[C@H]2CN(CCc3c([nH]c4ccccc34)[C@@](C(=O)OC)(c3cc4c(cc3OC)N(C=O)[C@H]3[C@@](O)(C(=O)OC)[C@H](OC(C)=O)[C@]5(CC)C=CCN6CC[C@]43[C@@H]65)C2)C1 [vincristine] + Cc1ccc(Nc2nccc(N(C)c3ccc4c(C)n(C)nc4c3)n2)cc1S(N)(=O)=O [Pazopanib] (first compound 0.0001 µM, partner dose 0.4 µM) | 268% | 97% | 41.3% | 60% | 85.7% | 65.1% | 58.8% | 115% | 66.4% | 130% | 56.5% | 133% | 155% | 398% | 122% | 165% | 244% | 116% |
| N#CC[C@H](C1CCCC1)n1cc(-c2ncnc3[nH]ccc23)cn1 [ruxolitinib] + C[C@]1(O)C[C@@H](c2nc(-c3ccc4ccc(-c5ccccc5)nc4c3)c3c(N)nccn32)C1 [OSI906] (first compound 1 µM, partner dose 0.4 µM) | 30.9% | 101% | 64.4% | 27.8% | 52.1% | 45.3% | 41% | 51.9% | 112% | 115% | 110% | 225% | 35.8% | 81.3% | 114% | 31.1% | 46.6% | 17.9% |
| Cc1cn(-c2cc(NC(=O)c3ccc(C)c(Nc4nccc(-c5cccnc5)n4)c3)cc(C(F)(F)F)c2)cn1 [nilotinib] + NC(=O)c1ccc(N(C(N)=O)c2c(F)cccc2F)nc1-c1ccc(F)cc1F [VX702] (first compound 0.2 µM, partner dose 0.4 µM) | 73.9% | 221% | 100% | 78% | 108% | 43.1% | 126% | 86.2% | 143% | 220% | 72.1% | 72.5% | 67% | 30.6% | 149% | 131% | 75.1% | 215% |
| N#CC[C@H](C1CCCC1)n1cc(-c2ncnc3[nH]ccc23)cn1 [ruxolitinib] + Cn1c(=O)n(-c2ccc(C(C)(C)C#N)cc2)c2c3cc(-c4cnc5ccccc5c4)ccc3ncc21 [NVP-BEZ235] (first compound 1 µM, partner dose 0.004 µM) | 49.8% | 123% | 167% | 189% | 106% | 41.8% | 140% | 101% | 211% | 80.2% | 168% | 28.1% | 99.1% | 182% | 141% | 157% | 31.8% | 146% |
| N#CC[C@H](C1CCCC1)n1cc(-c2ncnc3[nH]ccc23)cn1 [ruxolitinib] + O=C(O)c1ccc2c(c1)nc(Nc1cccc(Cl)c1)c1ccncc12 [CX4945] (first compound 1 µM, partner dose 0.4 µM) | 194% | 103% | 51.2% | 101% | 169% | 181% | 62.6% | 157% | 57.2% | 75.1% | 170% | 109% | 80.4% | 98.7% | 81.3% | 185% | 42.8% | 219% |
| O=C(Nc1cc(C(F)(F)F)cc(C(F)(F)F)c1)c1cc(Cl)ccc1O + CN1CCN(c2ccc3nc(-c4c(N)c5c(F)cccc5[nH]c4=O)[nH]c3c2)CC1 [Dovitinib] (first compound 0.016 µM, partner dose 0.1 µM) | 70.7% | 124% | 28.8% | 104% | 49.9% | 175% | 31.3% | 52.3% | 114% | 35.6% | 52.7% | 20.1% | 30.1% | 130% | 39.3% | 91.5% | 38.1% | 56.3% |
| O=C(Nc1cc(C(F)(F)F)cc(C(F)(F)F)c1)c1cc(Cl)ccc1O + Nc1nc(F)nc2c1ncn2[C@@H]1O[C@H](CO)[C@@H](O)[C@@H]1O [fludarabine] (first compound 0.016 µM, partner dose 0.2 µM) | 101% | 50.6% | 118% | 122% | 43.3% | 130% | 54.5% | 87.2% | 87% | 59.8% | 89.7% | 333% | 110% | 56.9% | 80.4% | 11100% | 1700% | 96.8% |
| N#CC[C@H](C1CCCC1)n1cc(-c2ncnc3[nH]ccc23)cn1 [ruxolitinib] + C[C@@H](N)c1ccc(C(=O)Nc2ccnc3[nH]ccc23)cc1 [RKI983] (first compound 1 µM, partner dose 0.4 µM) | 100% | 78.3% | 180% | 77.3% | 120% | 27.4% | 260% | 68.2% | 102% | 87.2% | 164% | 221% | 110% | 156% | 210% | 70.3% | 74.3% | 25.7% |
| O=C(/C=C/c1cccnc1)NCCCCC1CCN(C(=O)c2ccccc2)CC1 + CCN(CC)CCNC(=O)c1c(C)[nH]c(/C=C2\C(=O)Nc3ccc(F)cc32)c1C [sunitinib] (first compound 0.01 µM, partner dose 0.4 µM) | 2350% | 484% | 468% | 299% | 4050% | 234% | 292% | 313% | 47.8% | 35.2% | 855% | 158% | 137% | 328% | 36.2% | 1330% | 63% | 232% |
| O=C(Nc1cc(C(F)(F)F)cc(C(F)(F)F)c1)c1cc(Cl)ccc1O + COCC[n+]1c2c(n(Cc3cnccn3)c1C)C(=O)c1ccccc1C2=O [YM155] (first compound 0.016 µM, partner dose 0.0004 µM) | 84.5% | 73.5% | 53.7% | 80.2% | 102% | 47.2% | 98.5% | 213% | 42.3% | 34.4% | 120% | 78% | 156% | 168% | 37.5% | 110% | 69.9% | 126% |
| Cc1cc(Nc2cc(N3CCN(C)CC3)nc(Sc3ccc(NC(=O)C4CC4)cc3)n2)n[nH]1 [Tozasertib] + O=C(Nc1cc(C(F)(F)F)cc(C(F)(F)F)c1)c1cc(Cl)ccc1O [IMD0354] (first compound 0.006 µM, partner dose 0.016 µM) | 51.7% | 39.5% | 93.1% | 120% | 83.7% | 61.9% | 66.9% | 224% | 231% | 120% | 281% | 54% | 91.8% | 51.2% | 83.8% | 118% | 93.1% | 41.9% |

Quoted from the listing:
CC[C@]1(O)C[C@H]2CN(CCc3c([nH]c4ccccc34)[C@@](C(=O)OC)(c3cc4c(cc3OC)N(C=O)[C@H]3[C@@](O)(C(=O)OC)[C@H](OC(C)=O)[C@]5(CC)C=CCN6CC[C@]43[C@@H]65)C2)C1 [vincristine] + Cc1ccc(Nc2nccc(N(C)c3ccc4c(C)n(C)nc4c3)n2)cc1S(N)(=O)=O [Pazopanib] (first compound 0.0001 µM, partner dose 0.4 µM) – cleaved PARP positive nuclei fraction [15]: 122%
O=C(Nc1cc(C(F)(F)F)cc(C(F)(F)F)c1)c1cc(Cl)ccc1O + CN1CCN(c2ccc3nc(-c4c(N)c5c(F)cccc5[nH]c4=O)[nH]c3c2)CC1 [Dovitinib] (first compound 0.016 µM, partner dose 0.1 µM) – cleaved PARP positive nuclei fraction [1]: 70.7%
